PubChem BioAssay AID1259424 | University of Nebraska Medical Center, 2018
Purpose: 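Find knockdowns that reproduce the expression shifts seen after KSR1 loss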 (primary screen). Cell system: human HCT116 colon cancer cells. Knock-down reagent: siRNA pool against human genes, 50 nM. Read-out: 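Log2 levels of six mRNAs (branched-DNA multiplex), adjusted by two reference genes and the non-targeting median, then scored against the average KSR1 knockdown pattern as Pearson r and euclidean distance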. Direction: mean correlation with KSR1 profile and KSR1 correlation: higher = expression change more like KSR1 knockdown; mean distance from KSR1 profile: higher = expression change less like KSR1 knockdown.
Shown is a random part of about 14,000 deposited reagents. 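Higher correlation or smaller distance means closer resemblance to KSR1 loss; control wells, including KSR1 knockdowns, recur on many plates.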 Not all columns of the deposit are shown. The record does not give: the time to read-out.

target gene,mean correlation with KSR1 profile,mean distance from KSR1 profile,"KSR1 correlation, replicate 1","KSR1 correlation, replicate 2"
ENAM (enamelin),-0.122,3.5,-0.0759,-0.221
DUT (deoxyuridine triphosphatase),-0.299,1.97,-0.384,-0.407
BLTP3A (bridge-like lipid transfer protein family member 3A),-0.157,1.34,-0.0262,-0.245
TNFRSF11A (TNF receptor superfamily member 11a),0.23,1.79,0.318,0.0694
GRAMD1B (GRAM domain containing 1B),-0.686,2.77,-0.57,-0.55
TRIM23 (tripartite motif containing 23),-0.0904,1.27,-0.134,-0.17
VPS11 (VPS11 core subunit of CORVET and HOPS complexes),-0.438,2.95,-0.38,-0.336
DOK4 (docking protein 4),-0.0348,1.42,0.0748,-0.0972
"GIMAP5 (GTPase, IMAP family member 5)",0.396,1.83,0.36,0.241
NPL (N-acetylneuraminate pyruvate lyase),0.861,1.86,0.8,0.871
HSF4 (heat shock transcription factor 4),0.226,2.5,0.26,0.0674
DNAJC27 (DnaJ heat shock protein family (Hsp40) member C27),0.649,2.43,0.543,0.462
ZNF547 (zinc finger protein 547),0.106,1.53,0.259,0.184
HAS3 (hyaluronan synthase 3),-0.437,2.27,-0.258,-0.499
DKC1 (dyskerin pseudouridine synthase 1),-0.475,2.82,-0.423,-0.68
SMC5 (structural maintenance of chromosomes 5),-0.0471,2.86,0.0292,0.0131
RERG (RAS like estrogen regulated growth inhibitor),0.23,2.46,0.21,0.188
CSPP1 (centrosome and spindle pole associated protein 1),0.202,1.77,0.221,0.211
ZNF750 (zinc finger protein 750),0.665,1.52,0.677,0.76
CDCP1 (CUB domain containing protein 1),-0.667,2.58,-0.743,-0.67
ZNF484 (zinc finger protein 484),0.741,1.54,0.604,0.74
TTLL3 (tubulin tyrosine ligase like 3),0.228,3.57,0.54,0.166

A few values from above.
DNAJC27 (DnaJ heat shock protein family (Hsp40) member C27), KSR1 correlation, replicate 1: 0.543
Entry of VPS11 (VPS11 core subunit of CORVET and HOPS complexes) under “KSR1 correlation, replicate 1”: -0.38

The results go on.
target gene,mean correlation with KSR1 profile,mean distance from KSR1 profile,"KSR1 correlation, replicate 1","KSR1 correlation, replicate 2"
FGF10 (fibroblast growth factor 10),-0.403,1.04,-0.102,-0.609
SLC12A4,0.472,1.84,0.517,0.337
DDX20 (DEAD-box helicase 20),0.234,1.55,0.228,0.253
HSPB2 (heat shock protein family B (small) member 2),0.174,2.79,0.0563,0.386
GPR156 (G protein-coupled receptor 156),0.124,2.52,0.129,0.197
OVOL2 (ovo like zinc finger 2),0.0102,1.18,-0.334,0.316
ZC3H8 (zinc finger CCCH-type containing 8),0.641,1.66,0.649,0.379
AK4 (adenylate kinase 4),-0.0301,3.16,0.164,-0.0636
SLC22A3,-0.018,1.72,0.0601,-0.0878
DUSP26 (dual specificity phosphatase 26),-0.504,1.39,-0.354,-0.404
BIN3 (bridging integrator 3),-0.516,2.51,-0.433,-0.49
TRPM7,0.892,0.91,0.866,0.977
